The other results are listed elsewhere or left out. Residues, ends and D or L forms follow the SMILES beside them. *: point of attachment. Cbz = O=C(OCc1ccccc1)*
What was measured:
Test in all cases: log2 fold change, soluble protein after heating vs DMSO (PISA); higher = thermal stabilisation; K562 cells, 10 uM, 30 min; active = over 0.2 and 3.5 SD of the protein, either way, in both replicates (recomputed)
[1] = compound: C#Cc1cccc(Nc2ncnc3cc(OCCOC)c(OCCOC)cc23)c1 [erlotinib]
Outline: (§1)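 K562 cells at 2×10^6 cells/mL were treated with 10 μM compound for 30 min. Aliquots were heated for 3 min across 48°C-58°C, pooled, and extracted in PBS with 0.5% NP-40 at 4°C; soluble protein was the supernatant after 21,000xg for 90 min. Soluble protein was quantified by TMTpro 16plex LC-MS/MS with channel sums equalised, and reported as log2 fold change in thermal stability against DMSO controls, with values from duplicates.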

Amino acid sequences for entries named in this document (tags omitted). A change or cut given only in a name is not applied to a line headed by its entry.
UniProt Q13330: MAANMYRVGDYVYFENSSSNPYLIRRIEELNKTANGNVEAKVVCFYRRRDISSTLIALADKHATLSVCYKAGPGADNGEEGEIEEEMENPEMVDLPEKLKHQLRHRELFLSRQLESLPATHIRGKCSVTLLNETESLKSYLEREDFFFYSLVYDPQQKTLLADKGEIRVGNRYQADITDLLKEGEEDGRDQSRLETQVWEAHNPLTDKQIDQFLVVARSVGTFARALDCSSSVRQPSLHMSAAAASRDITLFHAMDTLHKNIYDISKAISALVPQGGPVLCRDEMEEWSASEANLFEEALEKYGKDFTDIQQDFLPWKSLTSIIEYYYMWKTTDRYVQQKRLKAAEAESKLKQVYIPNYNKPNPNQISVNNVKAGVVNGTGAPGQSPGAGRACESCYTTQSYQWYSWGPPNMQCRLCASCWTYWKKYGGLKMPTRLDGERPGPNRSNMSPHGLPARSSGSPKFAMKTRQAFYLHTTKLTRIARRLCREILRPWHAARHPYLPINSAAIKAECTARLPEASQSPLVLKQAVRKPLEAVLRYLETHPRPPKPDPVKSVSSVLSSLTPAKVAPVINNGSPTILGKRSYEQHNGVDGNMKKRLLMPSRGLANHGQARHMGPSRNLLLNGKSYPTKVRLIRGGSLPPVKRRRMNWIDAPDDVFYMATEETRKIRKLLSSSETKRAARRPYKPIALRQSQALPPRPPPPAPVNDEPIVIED
UniProt P12829: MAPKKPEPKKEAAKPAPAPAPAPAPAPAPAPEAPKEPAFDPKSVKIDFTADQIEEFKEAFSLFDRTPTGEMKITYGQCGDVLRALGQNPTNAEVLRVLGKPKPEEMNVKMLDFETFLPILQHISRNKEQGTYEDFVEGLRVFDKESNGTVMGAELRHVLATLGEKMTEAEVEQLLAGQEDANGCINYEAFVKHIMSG
UniProt P35579, whole entry, looked up: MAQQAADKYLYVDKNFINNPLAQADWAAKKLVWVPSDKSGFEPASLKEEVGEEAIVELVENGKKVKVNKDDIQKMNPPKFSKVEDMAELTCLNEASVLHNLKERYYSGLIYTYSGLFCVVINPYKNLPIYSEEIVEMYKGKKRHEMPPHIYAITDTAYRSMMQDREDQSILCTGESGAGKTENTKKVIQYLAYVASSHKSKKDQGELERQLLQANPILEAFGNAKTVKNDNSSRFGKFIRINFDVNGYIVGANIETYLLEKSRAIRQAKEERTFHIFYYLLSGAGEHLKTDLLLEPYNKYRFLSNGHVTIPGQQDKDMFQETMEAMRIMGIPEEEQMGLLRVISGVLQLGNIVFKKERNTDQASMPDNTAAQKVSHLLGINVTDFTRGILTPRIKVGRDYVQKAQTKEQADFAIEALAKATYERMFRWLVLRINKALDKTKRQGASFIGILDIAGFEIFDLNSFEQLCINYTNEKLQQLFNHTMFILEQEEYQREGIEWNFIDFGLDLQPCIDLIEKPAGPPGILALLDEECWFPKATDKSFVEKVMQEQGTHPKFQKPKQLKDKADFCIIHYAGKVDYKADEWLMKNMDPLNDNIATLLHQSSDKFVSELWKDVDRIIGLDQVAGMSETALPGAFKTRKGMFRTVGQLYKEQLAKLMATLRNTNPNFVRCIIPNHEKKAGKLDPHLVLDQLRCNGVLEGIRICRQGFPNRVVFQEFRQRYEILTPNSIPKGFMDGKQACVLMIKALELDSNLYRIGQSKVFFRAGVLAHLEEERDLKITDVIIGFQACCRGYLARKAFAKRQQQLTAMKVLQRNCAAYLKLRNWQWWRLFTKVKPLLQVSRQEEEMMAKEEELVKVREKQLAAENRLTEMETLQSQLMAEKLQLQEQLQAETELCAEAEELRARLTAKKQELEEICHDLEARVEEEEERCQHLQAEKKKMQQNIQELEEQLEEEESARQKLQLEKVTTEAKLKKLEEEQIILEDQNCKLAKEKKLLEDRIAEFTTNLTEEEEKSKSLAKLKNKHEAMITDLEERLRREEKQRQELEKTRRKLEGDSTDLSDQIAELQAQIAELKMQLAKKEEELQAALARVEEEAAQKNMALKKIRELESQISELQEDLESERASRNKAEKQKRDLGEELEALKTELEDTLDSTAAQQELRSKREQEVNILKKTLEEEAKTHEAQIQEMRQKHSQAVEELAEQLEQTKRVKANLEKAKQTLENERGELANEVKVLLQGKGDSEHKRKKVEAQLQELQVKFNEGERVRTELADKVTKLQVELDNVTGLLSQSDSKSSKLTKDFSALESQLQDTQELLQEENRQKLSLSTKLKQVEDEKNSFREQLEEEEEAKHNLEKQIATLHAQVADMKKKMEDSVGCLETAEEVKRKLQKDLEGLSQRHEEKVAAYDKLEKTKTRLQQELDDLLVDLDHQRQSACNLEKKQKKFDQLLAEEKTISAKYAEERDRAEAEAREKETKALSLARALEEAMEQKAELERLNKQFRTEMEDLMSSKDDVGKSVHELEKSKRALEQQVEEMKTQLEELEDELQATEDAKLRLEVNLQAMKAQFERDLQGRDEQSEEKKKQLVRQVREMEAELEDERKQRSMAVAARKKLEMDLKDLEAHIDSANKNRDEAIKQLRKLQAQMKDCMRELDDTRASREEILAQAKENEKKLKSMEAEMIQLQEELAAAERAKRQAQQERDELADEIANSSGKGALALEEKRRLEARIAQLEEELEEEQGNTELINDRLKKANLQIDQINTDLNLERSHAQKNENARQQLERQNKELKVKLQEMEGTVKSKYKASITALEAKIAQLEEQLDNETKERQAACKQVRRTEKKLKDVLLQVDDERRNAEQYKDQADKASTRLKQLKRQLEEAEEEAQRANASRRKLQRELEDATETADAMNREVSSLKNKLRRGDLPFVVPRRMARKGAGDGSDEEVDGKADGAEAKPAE
UniProt P03905, whole entry, looked up: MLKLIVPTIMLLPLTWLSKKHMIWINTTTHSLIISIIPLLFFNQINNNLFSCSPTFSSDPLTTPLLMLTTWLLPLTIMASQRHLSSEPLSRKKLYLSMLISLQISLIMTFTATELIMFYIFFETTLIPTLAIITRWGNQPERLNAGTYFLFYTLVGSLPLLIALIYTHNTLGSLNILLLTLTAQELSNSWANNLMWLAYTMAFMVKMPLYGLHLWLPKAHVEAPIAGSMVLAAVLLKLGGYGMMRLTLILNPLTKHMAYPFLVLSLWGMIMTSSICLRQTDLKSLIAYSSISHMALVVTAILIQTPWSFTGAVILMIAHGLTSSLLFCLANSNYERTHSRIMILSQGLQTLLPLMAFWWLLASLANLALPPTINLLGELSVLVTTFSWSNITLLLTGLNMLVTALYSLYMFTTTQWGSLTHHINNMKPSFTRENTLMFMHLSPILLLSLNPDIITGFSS
UniProt Q96QG7: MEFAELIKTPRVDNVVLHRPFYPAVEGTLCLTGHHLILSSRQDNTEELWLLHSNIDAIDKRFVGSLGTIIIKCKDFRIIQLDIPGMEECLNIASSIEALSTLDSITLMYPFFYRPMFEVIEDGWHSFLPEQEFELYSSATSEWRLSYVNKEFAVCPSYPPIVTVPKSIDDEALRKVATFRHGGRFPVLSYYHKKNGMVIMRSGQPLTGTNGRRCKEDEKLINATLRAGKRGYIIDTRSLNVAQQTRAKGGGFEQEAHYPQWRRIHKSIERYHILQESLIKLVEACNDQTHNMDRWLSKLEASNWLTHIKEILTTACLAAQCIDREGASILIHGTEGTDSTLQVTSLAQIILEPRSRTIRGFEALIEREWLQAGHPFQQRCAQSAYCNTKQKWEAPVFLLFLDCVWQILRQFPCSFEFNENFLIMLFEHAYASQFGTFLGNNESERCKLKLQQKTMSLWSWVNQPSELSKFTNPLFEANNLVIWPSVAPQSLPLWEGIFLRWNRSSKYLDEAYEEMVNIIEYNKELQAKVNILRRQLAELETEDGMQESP
UniProt P14649: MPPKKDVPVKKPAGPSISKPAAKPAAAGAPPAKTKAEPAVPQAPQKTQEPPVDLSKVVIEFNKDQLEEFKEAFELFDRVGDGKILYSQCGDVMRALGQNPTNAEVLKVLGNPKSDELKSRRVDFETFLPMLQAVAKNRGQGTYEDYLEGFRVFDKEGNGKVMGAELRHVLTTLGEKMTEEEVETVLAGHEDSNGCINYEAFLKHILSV
UniProt Q765P7: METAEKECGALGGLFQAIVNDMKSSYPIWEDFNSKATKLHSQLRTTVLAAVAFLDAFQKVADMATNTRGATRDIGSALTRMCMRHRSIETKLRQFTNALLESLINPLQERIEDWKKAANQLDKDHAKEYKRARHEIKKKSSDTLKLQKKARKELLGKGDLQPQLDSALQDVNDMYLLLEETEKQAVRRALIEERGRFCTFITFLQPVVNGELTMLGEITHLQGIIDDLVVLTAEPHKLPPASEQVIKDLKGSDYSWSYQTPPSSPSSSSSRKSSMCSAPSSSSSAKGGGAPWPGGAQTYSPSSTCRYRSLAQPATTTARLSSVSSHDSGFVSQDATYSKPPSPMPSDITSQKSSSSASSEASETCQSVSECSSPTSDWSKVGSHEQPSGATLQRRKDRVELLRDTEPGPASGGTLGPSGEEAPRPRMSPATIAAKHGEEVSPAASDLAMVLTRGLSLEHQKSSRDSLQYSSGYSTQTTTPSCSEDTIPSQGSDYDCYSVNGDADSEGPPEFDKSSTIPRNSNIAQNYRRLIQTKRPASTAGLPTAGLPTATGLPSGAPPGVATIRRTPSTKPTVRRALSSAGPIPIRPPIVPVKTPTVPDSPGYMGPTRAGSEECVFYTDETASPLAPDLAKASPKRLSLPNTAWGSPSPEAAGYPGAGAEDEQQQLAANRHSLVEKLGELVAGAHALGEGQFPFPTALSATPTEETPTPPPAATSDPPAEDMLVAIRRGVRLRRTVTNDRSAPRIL
UniProt P52701: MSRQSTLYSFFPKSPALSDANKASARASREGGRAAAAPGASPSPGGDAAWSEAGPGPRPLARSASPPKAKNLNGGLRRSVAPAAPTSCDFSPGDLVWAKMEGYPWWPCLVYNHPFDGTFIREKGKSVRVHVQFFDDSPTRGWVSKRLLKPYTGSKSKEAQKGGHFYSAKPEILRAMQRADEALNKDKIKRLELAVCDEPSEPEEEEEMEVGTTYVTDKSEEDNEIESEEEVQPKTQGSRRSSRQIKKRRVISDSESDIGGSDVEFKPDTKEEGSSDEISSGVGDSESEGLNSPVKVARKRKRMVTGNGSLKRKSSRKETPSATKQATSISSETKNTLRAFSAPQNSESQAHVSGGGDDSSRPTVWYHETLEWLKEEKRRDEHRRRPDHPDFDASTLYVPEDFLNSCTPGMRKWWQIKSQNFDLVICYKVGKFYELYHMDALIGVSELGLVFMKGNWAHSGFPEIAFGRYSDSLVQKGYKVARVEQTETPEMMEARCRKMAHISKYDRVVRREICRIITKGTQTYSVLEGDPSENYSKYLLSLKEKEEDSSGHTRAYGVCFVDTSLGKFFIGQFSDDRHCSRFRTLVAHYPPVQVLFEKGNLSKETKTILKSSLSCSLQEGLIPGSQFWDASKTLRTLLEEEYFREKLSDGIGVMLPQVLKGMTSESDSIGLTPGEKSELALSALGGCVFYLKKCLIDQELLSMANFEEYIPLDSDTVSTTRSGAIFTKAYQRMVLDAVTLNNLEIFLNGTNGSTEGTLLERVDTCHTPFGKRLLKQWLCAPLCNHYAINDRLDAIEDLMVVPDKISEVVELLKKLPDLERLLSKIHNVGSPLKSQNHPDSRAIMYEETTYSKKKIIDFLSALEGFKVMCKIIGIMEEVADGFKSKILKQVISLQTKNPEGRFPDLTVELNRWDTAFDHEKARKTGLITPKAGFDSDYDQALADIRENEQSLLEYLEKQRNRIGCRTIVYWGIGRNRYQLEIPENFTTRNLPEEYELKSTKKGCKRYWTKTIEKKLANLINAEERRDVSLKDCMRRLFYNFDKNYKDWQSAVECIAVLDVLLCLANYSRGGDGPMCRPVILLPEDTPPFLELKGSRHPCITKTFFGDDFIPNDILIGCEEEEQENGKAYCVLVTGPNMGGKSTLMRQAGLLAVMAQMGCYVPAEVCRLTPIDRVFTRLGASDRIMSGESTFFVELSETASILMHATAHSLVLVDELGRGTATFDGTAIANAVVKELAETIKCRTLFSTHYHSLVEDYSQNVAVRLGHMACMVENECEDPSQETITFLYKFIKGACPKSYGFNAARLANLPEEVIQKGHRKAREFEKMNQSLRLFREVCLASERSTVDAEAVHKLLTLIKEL
UniProt P13995: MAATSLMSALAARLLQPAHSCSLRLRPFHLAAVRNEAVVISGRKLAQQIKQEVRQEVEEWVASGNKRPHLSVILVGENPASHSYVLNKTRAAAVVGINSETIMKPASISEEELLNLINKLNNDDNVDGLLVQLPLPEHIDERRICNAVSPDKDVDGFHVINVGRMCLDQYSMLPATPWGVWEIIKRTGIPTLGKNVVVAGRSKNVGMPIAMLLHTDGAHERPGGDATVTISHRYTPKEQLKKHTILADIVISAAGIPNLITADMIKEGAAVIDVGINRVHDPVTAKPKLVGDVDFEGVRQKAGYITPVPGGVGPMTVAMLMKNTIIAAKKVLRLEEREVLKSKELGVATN

[2] = compound: C/C(=N\NC(=O)C1=CC(=CC=C1)S(=O)(=O)N2CCOCC2)/C3=C(C=CC(=C3)Cl)O
Outline: as §1

[3] = compound: C1=CC(=C(C=C1Cl)C2=NC3=NC=CN=C3C(=N2)NC4=CC=NC=C4)F
Outline: as §1

[4] = compound: C1=CC(=CC=C1C2=NC3=C(N2)C=C(C=C3)C(=O)N)OC4=CC=C(C=C4)Cl
Outline: as §1

[5] = compound: C1=CC2=C(C=CC(=C2)/C=C\3/C(=O)NC(=NCC4=CC=CS4)S3)N=C1
Outline: as §1

[6] = compound: C1=CC2=NC=CN=C2C=C1/C=C/3\C(=O)NC(=O)S3
Outline: as §1

[7] = compound: C1=CC=C(C=C1)C2=NC(=C(N2)C3=CC=NC=C3)C4=CC(=C(C=C4)Cl)O
Outline: as §1

[8] = compound: C1=CC=C2C(=C1)C3=NNC4=CC=CC(=C43)C2=O
Outline: as §1

[9] = compound: C1CCN(C1)C(=O)NC2=CC=CC(=C2)NC3=NC=C(C(=N3)NCCC4=CN=CN4)Br
Outline: as §1

[10] = compound: C1CN(CCC1(CC2=CC=C(C=C2)Cl)N)C3=NC=NC4=C3C=CN4
Outline: as §1

[11] = compound: C1COCCN1CCN2C3=CC=CC=C3N=C2NC(=O)C4=CC(=CC=C4)[N+](=O)[O-] [IRAK-1-4 Inhibitor I]
Outline: as §1

[12] = compound: C=CC(=O)N1CCC[C@@H](n2nc(-c3ccc(Oc4ccccc4)cc3)c3c(N)ncnc32)C1 [ibrutinib]
Outline: as §1

[13] = compound: CC(=O)c1cnc2ccc(-c3cc(Cl)c(O)c(Cl)c3)nc2c1N[C@H]1CC[C@H](CN(C)C)CC1
Outline: as §1

[14] = compound: CC(C)(C)Cn1c(N)nc2ccc(-c3[nH]c(C(C)(C)C)nc3-c3ccc(F)cc3)nc21 [ralimetinib]
Outline: as §1

[15] = compound: CC(C)(O)CC(=O)NCCn1ccc2ncnc(Nc3ccc(Oc4cccc(C(F)(F)F)c4)c(Cl)c3)c21
Outline: as §1

[16] = compound: CC(C)C1=C2N=C(C=C(N2N=C1)NCC3=CC=CC=C3)NCCCCCCN
Outline: as §1

[17] = compound: CC(C)C[C@@H](C=O)NC(=O)[C@H](CC(C)C)NC(=O)[C@H](CC(C)C)NC(=O)OCc1ccccc1
Outline: as §1

[18] = compound: CC(C)N(C[C@H]1O[C@@H](n2cnc3c(N)ncnc32)[C@H](O)[C@@H]1O)[C@H]1C[C@@H](CCc2nc3cc(C(C)(C)C)ccc3[nH]2)C1 [pinometostat]
Outline: as §1

[19] = compound: CC1=C(C(CC(=O)N1)C2=CC=C(C=C2)C(F)(F)F)C(=O)NC3=C(C=C4C(=C3)C=NN4)F
Outline: as §1

[20] = compound: CC1=C(C2=C(C=C1)C(=O)C3=CC=CC=C3N2CCCN)C
Outline: as §1

Measured: log2 fold change

MTA1 (UniProt Q13330)
inactive: [1] -0.041 | [2] 0.063 | [3] -0.013 | [4] 0.006 | [5] 0.034 | [6] 0.031 | [7] -0.106 | [8] 0 | [9] -0.041 | [10] -0.009 | [11] -0.025 | [12] -0.023 | [13] -0.188 | [14] -0.012 | [15] -0.072 | [16] -0.101 | [17] 0.025 | [18] 0.027 | [19] -0.003 | [20] -0.201

MYL4 (UniProt P12829)
inactive: [1] -0.002 | [2] -0.013 | [3] 0.074 | [4] -0.025 | [5] 0.005 | [6] 0.039 | [7] 0.01 | [8] -0.05 | [9] -0.022 | [10] -0.044 | [11] -0.031 | [12] 0.024 | [13] 0.04 | [14] -0.004 | [15] -0.003 | [16] 0.111 | [17] 0.003 | [18] -0.089 | [19] 0.043 | [20] 0.043

MYBBP1A isoform 2 (UniProt Q9BQG0)
inactive: [1] -0.056 | [2] 0.017 | [3] -0.446 | [4] 0.025 | [5] 0.108 | [6] 0.112 | [7] -0.169 | [8] -0.07 | [9] -0.001 | [10] -0.464 | [11] -0.198 | [12] -0.105 | [13] -0.262 | [14] -0.04 | [15] -0.001 | [16] -0.271 | [17] 0.041 | [18] 0.666 | [19] 0.067 | [20] -0.337

MRPS15 (UniProt P82914)
inactive: [1] -0.061 | [2] -0.201 | [3] -0.119 | [4] 0.089 | [5] 0.069 | [6] 0.064 | [7] 0.021 | [8] 0.106 | [9] -0.045 | [10] -0.108 | [11] -0.062 | [12] -0.022 | [13] -0.024 | [14] 0.014 | [15] -0.12 | [16] -0.041 | [17] 0.004 | [18] 0.041 | [20] -0.2

MYH9 (UniProt P35579)
inactive: [1] 0.005 | [2] 0.051 | [3] 0.072 | [4] 0.016 | [5] -0.017 | [6] 0.015 | [7] 0.046 | [8] 0.053 | [9] -0.027 | [10] 0.019 | [11] 0.017 | [12] -0.034 | [13] 0.032 | [14] 0.005 | [15] -0.05 | [16] 0.011 | [17] -0.032 | [18] -0.031 | [19] -0.001 | [20] -0.003

MT-ND4 (UniProt P03905)
inactive: [1] 0.152 | [2] -0.077 | [3] 0.053 | [4] -0.028 | [5] -0.026 | [6] 0.044 | [7] -0.009 | [8] 0.078 | [9] -0.007 | [10] -0.036 | [11] -0.005 | [12] -0.092 | [13] -0.236 | [14] -0.06 | [15] -0.094 | [16] -0.124 | [17] -0.054 | [18] -0.135 | [20] 0.056

MTMR9 (UniProt Q96QG7)
inactive: [1] 0.084 | [2] 0.041 | [3] 0.06 | [4] 0.001 | [5] 0.099 | [6] -0.017 | [7] 0.016 | [8] 0.077 | [9] -0.058 | [10] -0.053 | [11] -0.039 | [12] 0.037 | [13] -0.081 | [14] 0.007 | [15] -0.119 | [16] -0.068 | [17] -0.016 | [18] 0.014 | [19] -0.173 | [20] 0.004

MYL6B (UniProt P14649)
inactive: [1] -0.053 | [2] -0.029 | [3] 0.035 | [4] 0.053 | [5] 0.004 | [6] 0.035 | [7] -0.055 | [8] -0.044 | [9] 0.007 | [10] -0.029 | [11] 0.019 | [12] 0.016 | [13] 0.008 | [14] -0.015 | [15] -0.012 | [16] 0.003 | [17] 0.029 | [18] -0.012 | [19] 0.013 | [20] -0.016

Quoted from the results shown (2 entries):
MTMR9 (UniProt Q96QG7)
inactive: [1] 0.084 | [2] 0.041 | [3] 0.06 | [4] 0.001 | [5] 0.099 | [6] -0.017 | [7] 0.016 | [8] 0.077 | [9] -0.058 | [10] -0.053 | [11] -0.039 | [12] 0.037 | [13] -0.081 | [14] 0.007 | [15] -0.119 | [16] -0.068 | [17] -0.016 | [18] 0.014 | [19] -0.173 | [20] 0.004

MYL6B (UniProt P14649)
inactive: [1] -0.053 | [2] -0.029 | [3] 0.035 | [4] 0.053 | [5] 0.004 | [6] 0.035 | [7] -0.055 | [8] -0.044 | [9] 0.007 | [10] -0.029 | [11] 0.019 | [12] 0.016 | [13] 0.008 | [14] -0.015 | [15] -0.012 | [16] 0.003 | [17] 0.029 | [18] -0.012 | [19] 0.013 | [20] -0.016

(further entries)

MYH10 isoform 3 (UniProt P35580)
inactive: [1] -0.002 | [2] 0.043 | [3] 0.089 | [4] -0.032 | [5] 0.006 | [6] 0.01 | [7] 0.034 | [8] 0.021 | [9] 0.015 | [10] -0.024 | [11] 0.024 | [12] -0.022 | [13] -0.011 | [14] -0.04 | [15] -0.069 | [16] -0.05 | [17] -0.001 | [18] -0.015 | [20] -0.024

MTSS2 (UniProt Q765P7)
inactive: [1] 0.028 | [2] -0.027 | [3] 0.053 | [4] -0.018 | [5] 0.083 | [6] 0.045 | [7] 0.03 | [8] 0.01 | [9] -0.008 | [10] 0.071 | [11] 0.092 | [12] -0.048 | [13] -0.011 | [14] -0.01 | [15] -0.005 | [16] -0.024 | [17] 0.02 | [18] 0.044 | [19] 0.066 | [20] 0.104

MSTO1 (UniProt Q9BUK6)
inactive: [1] 0.031 | [2] 0.06 | [3] 0.075 | [4] -0.044 | [5] -0.003 | [6] 0.007 | [7] 0.038 | [8] 0.043 | [9] 0.011 | [10] -0.041 | [11] 0.012 | [12] 0.009 | [13] -0.003 | [14] -0.028 | [15] -0.162 | [16] -0.105 | [17] -0.003 | [18] -0.002 | [20] 0.043

MSH6 (UniProt P52701)
inactive: [1] 0.286 | [2] 0.224 | [3] 0.096 | [4] 0.002 | [5] 0.167 | [6] 0 | [7] 0.102 | [8] 0.137 | [9] -0.095 | [10] -0.143 | [11] -0.18 | [12] -0.088 | [13] -0.121 | [14] -0.024 | [15] -0.299 | [16] -0.544 | [17] 0.039 | [18] -0.005
active: [20] 0.884

MRPS22 (UniProt P82650)
inactive: [1] -0.052 | [2] 0.026 | [3] -0.021 | [4] 0.16 | [5] -0.082 | [6] 0 | [7] 0.026 | [8] 0.068 | [9] -0.028 | [10] -0.101 | [11] -0.027 | [12] 0.051 | [13] -0.02 | [14] 0.017 | [15] -0.102 | [16] -0.11 | [17] 0.04 | [18] 0.007 | [20] -0.175

MTHFD2 (UniProt P13995)
inactive: [1] 0.058 | [2] -0.015 | [3] 0.078 | [4] -0.003 | [5] 0.035 | [6] 0.015 | [7] 0 | [8] 0.004 | [9] 0.038 | [10] 0.005 | [11] 0.06 | [12] -0.005 | [13] -0.021 | [14] -0.074 | [15] -0.074 | [16] -0.105 | [17] -0.023 | [18] -0.01 | [19] 0.026 | [20] -0.032

MSH2 (UniProt P43246)
active: [20] 0.357
inactive: [1] 0.038 | [2] 0.109 | [3] 0.066 | [4] -0.004 | [5] 0.037 | [6] 0.025 | [7] -0.016 | [8] 0.035 | [9] -0.064 | [10] -0.059 | [11] -0.024 | [12] -0.066 | [13] 0.018 | [14] -0.031 | [15] -0.041 | [16] -0.019 | [17] 0.023 | [18] -0.023

MRPS33 (UniProt Q9Y291)
inactive: [1] 0.023 | [2] -0.018 | [3] -0.129 | [4] 0.021 | [5] 0.019 | [6] 0.032 | [7] -0.043 | [8] 0.018 | [9] 0.026 | [10] -0.133 | [11] -0.006 | [12] 0.022 | [13] -0.004 | [14] -0.038 | [15] -0.069 | [16] -0.034 | [17] 0.122 | [18] 0.096 | [20] -0.158

From the supplement of paper PMC10849652
